Experimental data from patent US20240207302A1, “ANTIVIRAL COMPOUNDS, METHODS FOR THE MANUFACTURING OF COMPOUNDS, ANTIVIRAL PHARMACEUTICAL COMPOSITION, USE OF THE COMPOUNDS AND METHOD FOR THE ORAL TREATMENT OF CORONAVIRUS INFECTION AND RELATED DISEASES THEREOF” (priority 2021, published 2024).
For some assays here: For at least one compound, name, drawing or mass did not settle the structure. Some of these results come from one statement about several compounds together.

Columns and labels:
[1] = test system: SARS-COV-2; assay: Genomic and subgenomic SARS-COV-2 RNA in Calu-3 cells (quantitative RT-PCR); assay type: cell-based; conditions: 10 μM
[2] = test system: murine hepatitis virus (MHV); parameters: species or system mice; conditions: mouse, in vivo
[3] = test system: SARS-COV-2; assay: SARS-COV-2 viral RNA synthesis in HuH-7 cells (real time RT-PCR); assay type: cell-based; conditions: 1.0 μM

## CCC(CC)COC(=O)[C@H](C)N[P@](=O)(OC[C@H]1O[C@@](C#N)(c2ccc3c(N)ncnn23)[C@H](O)[C@@H]1O)Oc1ccccc1 [Remdesivir, reference compound]
[1]
  inhibition of genomic (replication) vs sub-genomic (transcription) viral RNA: inhibited both the markers of replication (genomic RNA) and transcription (sub-genomic RNA) at similar magnitudes

## COC(=O)N[C@H](C(=O)N1CCC[C@H]1c1nc(-c2ccc(-c3ccc(-c4c[nH]c([C@@H]5CCCN5C(=O)[C@@H](NC(=O)OC)C(C)C)n4)cc3)cc2)c[nH]1)C(C)C [Daclatasvir, reference compound]
[2]
  mortality: completely prevented mortality
  weight recovery: did not allow complete weight recovery

## OC[C@H]1O[C@@H](n2cnc3c(NCc4ccco4)ncnc32)[C@H](O)[C@@H]1O [MB-801, kinetin riboside]
[3]
  inhibitory activity on viral RNA synthesis: ≥ 50%

## c1coc(CNc2ncnc3[nH]cnc23)c1 [MB-905, kinetin]
[3]
  inhibitory activity on viral RNA synthesis: ≥ 50%
